For 1 molecule, binding results are on record in paper PMC5777986.

These are yes or no findings as the source states them, for the method shown. In cells and extracts the contact can be indirect. Some binding calls cover weakened binding; strength is not graded here.

The experiment has as its target T1, TatA (E. coli) (UniProt P69428).
T1 sequence: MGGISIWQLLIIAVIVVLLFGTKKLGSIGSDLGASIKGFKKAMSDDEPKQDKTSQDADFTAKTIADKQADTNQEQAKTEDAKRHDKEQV
The experiment is described as follows: cross-linking; inverted inner membrane vesicles (TatABC, TatEBC, TatEABC) diluted in INV-buffer, DCCD (1 µl of 50 mM in 100 µl) added, 20 min on ice, TCA precipitation, 9% Tricine SDS-PAGE, Western blot with antibodies against TatA, TatB, TatC, TatE.

B1: TatE (protein, UniProt P0A843 1-67)
chain: MGEISITKLLVVAALVVLLFGTKKLRTLGGDLGAAIKGFKKAMNDDDAAAKKGADVDLQAEKLSHKE
As to B1, the binding entry is “binds”.
